Laboratory results published in ChEMBL document CHEMBL2046424, “Synthesis and anti Methicillin resistant Staphylococcus aureus activity of substituted chalcones alone and in combination with non-beta-lactam antibiotics” (2012).

Columns and labels:
Staphylococcus aureus [1] = experiment: Antibacterial activity against methicillin-sensitive Staphylococcus aureus ATCC 25923 at 10 ug/ml after 24 hrs by disc diffusion method; assay type: functional, organism-based
Staphylococcus aureus [2] = experiment: Antibacterial activity against methicillin-resistant Staphylococcus aureus ATCC 43300 at 10 ug/ml after 24 hrs by disc diffusion method; assay type: functional, organism-based

## GENTAMICIN
Staphylococcus aureus [1]
  inhibition zone (IZ): 27 mm
Staphylococcus aureus [2]
  inhibition zone (IZ): 23 mm
